Reference: the supplement of paper PMC7666118
Some of the results follow.

Protein sequences, listed by entry. Tags and fused reporters are not part of them. Lines headed by an entry give the natural chain unless they say otherwise; changes in a name come on top.
UniProt Q86UK7: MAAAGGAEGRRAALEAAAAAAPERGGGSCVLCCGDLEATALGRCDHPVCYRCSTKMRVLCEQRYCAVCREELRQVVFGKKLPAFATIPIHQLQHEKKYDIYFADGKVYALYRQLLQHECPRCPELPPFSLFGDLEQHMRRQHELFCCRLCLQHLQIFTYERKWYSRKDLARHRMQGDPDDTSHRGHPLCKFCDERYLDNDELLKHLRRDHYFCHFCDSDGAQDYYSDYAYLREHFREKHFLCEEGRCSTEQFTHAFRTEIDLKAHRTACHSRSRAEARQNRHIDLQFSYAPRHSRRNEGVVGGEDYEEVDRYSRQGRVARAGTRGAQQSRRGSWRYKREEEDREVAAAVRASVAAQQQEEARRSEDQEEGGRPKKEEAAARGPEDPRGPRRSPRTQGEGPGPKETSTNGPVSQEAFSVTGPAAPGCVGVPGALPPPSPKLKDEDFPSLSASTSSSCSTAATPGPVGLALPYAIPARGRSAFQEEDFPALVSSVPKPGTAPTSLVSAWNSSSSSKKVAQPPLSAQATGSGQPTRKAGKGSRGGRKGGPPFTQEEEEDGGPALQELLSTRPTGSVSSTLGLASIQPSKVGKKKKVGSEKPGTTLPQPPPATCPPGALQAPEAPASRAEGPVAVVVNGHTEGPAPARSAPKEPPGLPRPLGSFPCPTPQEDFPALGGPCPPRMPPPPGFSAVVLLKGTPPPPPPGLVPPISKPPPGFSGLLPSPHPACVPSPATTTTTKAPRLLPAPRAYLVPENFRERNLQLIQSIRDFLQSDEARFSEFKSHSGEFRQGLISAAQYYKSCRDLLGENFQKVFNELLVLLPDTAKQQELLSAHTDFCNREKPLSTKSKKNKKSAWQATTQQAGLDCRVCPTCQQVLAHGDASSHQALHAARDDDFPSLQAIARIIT
UniProt Q15649: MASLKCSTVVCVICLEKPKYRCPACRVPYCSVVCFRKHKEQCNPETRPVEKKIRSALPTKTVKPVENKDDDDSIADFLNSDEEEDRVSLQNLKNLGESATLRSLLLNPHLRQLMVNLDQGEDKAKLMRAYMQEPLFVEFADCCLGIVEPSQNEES
UniProt Q14966: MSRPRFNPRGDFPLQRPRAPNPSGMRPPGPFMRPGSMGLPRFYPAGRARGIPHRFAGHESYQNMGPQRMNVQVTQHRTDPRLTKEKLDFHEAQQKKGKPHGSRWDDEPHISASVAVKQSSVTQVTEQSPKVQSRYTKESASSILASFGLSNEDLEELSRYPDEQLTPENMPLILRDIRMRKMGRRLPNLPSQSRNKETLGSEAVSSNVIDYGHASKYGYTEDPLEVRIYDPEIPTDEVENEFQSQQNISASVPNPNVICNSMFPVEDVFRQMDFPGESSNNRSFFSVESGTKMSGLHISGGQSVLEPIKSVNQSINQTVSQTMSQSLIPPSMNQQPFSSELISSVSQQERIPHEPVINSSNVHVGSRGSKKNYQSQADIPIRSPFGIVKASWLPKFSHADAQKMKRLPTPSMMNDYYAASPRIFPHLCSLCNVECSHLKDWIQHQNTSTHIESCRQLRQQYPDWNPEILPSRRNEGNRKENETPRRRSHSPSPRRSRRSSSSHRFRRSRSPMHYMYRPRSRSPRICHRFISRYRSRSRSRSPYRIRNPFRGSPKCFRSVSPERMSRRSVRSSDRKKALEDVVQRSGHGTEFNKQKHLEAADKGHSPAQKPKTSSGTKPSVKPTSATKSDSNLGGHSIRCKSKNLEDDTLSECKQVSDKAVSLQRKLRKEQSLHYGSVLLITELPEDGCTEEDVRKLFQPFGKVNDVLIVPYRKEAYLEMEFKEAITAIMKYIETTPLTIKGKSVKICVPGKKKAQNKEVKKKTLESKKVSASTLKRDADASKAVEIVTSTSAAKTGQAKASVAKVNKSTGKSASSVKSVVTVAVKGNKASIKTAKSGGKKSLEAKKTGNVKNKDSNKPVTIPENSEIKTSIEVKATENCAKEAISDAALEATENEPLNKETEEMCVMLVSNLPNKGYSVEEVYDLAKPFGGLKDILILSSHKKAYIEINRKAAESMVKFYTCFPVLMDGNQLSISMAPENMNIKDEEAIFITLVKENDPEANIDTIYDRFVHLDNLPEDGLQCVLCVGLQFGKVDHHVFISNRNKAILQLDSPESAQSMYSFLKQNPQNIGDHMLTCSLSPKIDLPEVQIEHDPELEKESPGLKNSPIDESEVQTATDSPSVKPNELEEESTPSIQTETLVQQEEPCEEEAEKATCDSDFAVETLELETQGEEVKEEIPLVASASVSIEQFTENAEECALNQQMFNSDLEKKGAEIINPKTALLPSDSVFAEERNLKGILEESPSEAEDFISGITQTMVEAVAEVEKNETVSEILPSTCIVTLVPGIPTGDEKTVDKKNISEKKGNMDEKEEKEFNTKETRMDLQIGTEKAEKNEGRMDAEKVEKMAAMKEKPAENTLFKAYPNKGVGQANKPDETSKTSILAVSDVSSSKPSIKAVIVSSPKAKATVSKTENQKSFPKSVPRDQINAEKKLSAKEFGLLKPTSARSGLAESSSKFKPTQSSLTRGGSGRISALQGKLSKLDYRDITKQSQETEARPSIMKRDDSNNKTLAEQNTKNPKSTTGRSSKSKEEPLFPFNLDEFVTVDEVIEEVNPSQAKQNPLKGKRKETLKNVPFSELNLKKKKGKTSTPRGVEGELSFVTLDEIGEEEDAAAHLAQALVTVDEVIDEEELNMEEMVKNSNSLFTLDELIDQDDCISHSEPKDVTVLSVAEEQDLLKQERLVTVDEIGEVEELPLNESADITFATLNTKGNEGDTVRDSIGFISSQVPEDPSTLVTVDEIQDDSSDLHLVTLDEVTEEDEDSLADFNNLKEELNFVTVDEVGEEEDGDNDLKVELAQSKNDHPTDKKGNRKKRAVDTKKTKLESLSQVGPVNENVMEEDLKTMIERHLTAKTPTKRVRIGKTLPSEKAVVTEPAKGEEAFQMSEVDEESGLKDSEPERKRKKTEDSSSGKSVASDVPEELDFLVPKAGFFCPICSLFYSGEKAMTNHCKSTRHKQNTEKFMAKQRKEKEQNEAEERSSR
UniProt Q14592: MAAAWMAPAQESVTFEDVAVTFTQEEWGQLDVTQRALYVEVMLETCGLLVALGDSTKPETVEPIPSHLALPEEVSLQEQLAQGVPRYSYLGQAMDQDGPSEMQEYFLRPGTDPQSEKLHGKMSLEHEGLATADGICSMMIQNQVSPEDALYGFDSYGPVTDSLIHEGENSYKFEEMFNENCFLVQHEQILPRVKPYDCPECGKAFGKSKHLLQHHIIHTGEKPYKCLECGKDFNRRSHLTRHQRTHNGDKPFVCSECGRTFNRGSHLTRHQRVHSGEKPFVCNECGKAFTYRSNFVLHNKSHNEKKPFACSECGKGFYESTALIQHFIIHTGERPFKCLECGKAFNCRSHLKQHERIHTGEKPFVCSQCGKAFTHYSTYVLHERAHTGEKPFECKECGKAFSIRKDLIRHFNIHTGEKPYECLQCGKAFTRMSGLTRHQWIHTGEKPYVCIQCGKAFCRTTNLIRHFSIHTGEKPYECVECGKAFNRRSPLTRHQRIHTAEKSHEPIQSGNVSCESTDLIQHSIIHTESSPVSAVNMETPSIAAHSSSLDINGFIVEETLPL
UniProt Q9ULJ3: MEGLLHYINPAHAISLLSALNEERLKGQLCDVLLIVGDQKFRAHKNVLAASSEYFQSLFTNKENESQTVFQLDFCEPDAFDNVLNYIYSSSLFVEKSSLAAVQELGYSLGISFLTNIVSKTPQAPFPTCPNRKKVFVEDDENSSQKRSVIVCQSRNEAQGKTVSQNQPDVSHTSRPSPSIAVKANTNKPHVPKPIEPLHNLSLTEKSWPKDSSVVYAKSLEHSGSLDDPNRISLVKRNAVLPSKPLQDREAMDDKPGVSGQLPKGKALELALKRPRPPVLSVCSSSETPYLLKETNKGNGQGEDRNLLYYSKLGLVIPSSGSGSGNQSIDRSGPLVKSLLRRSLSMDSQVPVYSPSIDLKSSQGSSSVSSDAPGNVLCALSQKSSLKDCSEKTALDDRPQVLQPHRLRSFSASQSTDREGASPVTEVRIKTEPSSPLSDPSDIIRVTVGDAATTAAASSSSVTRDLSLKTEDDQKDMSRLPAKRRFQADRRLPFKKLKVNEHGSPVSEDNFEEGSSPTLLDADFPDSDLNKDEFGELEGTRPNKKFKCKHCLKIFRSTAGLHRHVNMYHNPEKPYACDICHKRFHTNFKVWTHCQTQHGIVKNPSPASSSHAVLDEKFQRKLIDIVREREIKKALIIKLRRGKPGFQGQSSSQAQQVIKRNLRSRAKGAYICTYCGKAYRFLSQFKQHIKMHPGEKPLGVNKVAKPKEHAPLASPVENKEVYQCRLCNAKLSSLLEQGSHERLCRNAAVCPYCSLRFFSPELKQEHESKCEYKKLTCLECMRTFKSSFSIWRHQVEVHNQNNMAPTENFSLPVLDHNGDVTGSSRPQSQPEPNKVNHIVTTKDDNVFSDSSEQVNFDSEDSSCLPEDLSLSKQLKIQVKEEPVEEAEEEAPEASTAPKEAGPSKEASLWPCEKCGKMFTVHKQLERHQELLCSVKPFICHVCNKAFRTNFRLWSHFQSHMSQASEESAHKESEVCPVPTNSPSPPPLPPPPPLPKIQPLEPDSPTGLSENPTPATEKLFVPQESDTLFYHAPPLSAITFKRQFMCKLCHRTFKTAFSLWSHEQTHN
UniProt Q9Y5V0: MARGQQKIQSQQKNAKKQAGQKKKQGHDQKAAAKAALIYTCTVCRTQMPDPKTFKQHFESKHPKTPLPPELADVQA
UniProt O15015: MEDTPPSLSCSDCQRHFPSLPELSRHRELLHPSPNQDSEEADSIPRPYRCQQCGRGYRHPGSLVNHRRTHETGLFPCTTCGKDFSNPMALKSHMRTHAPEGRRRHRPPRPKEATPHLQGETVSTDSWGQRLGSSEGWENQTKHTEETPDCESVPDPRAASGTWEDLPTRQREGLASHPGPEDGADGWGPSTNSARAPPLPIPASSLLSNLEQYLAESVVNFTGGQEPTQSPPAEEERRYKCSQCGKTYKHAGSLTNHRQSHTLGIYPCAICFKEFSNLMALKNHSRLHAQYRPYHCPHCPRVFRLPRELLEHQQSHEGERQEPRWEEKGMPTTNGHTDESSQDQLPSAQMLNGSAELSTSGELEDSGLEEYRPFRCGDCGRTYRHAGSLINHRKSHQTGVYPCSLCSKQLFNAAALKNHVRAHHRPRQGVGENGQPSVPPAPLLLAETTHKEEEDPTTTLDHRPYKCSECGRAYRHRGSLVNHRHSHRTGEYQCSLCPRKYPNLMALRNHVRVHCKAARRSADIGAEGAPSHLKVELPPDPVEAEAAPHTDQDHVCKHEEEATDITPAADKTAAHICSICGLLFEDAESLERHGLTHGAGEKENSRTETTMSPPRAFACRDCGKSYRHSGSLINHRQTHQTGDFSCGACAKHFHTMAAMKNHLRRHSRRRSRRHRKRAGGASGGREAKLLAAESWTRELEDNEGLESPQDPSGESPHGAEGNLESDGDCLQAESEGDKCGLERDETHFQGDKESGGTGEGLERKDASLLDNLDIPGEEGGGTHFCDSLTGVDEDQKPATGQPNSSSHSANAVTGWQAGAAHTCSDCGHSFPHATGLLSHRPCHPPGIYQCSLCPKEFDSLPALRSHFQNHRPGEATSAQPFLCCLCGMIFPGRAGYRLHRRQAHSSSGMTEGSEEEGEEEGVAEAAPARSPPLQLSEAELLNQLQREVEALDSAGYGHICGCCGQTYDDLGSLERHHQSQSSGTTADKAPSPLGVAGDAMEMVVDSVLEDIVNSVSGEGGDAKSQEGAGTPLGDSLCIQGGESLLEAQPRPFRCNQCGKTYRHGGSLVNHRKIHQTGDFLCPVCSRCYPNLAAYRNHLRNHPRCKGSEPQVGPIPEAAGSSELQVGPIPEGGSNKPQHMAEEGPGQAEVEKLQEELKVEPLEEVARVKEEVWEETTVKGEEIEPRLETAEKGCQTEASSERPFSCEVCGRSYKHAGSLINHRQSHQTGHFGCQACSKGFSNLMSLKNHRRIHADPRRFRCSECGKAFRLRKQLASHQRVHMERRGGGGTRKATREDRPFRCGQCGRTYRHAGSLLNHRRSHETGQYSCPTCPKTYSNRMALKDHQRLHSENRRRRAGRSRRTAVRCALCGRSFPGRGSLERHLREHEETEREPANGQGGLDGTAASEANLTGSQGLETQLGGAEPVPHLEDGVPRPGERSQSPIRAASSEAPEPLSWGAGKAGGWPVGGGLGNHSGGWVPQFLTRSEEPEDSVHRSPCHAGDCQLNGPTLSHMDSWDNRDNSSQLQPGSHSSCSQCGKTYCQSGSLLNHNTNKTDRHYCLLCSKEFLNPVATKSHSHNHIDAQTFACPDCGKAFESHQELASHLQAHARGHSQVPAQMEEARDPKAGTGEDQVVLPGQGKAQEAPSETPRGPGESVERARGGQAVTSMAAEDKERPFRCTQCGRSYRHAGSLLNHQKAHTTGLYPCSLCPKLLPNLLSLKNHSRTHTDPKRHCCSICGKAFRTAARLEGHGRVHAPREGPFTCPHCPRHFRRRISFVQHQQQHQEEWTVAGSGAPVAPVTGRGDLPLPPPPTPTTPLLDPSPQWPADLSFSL

The targets below were run with COc1ccc(Cn2ccc3ccc(C(=O)NO)cc32)cc1 (assay: dose-dependent thermal stabilisation call (2D-TPP, DLPTP, 10% FDR) (binary (1 = stabilised)); higher = stabilised by the compound). Settings: system: HL-60 intact cells; concentration range 0.04-10 µM.

Target | dose-dependent thermal stabilisation call
ZNF687 (UniProt Q8N1G0) | inactive: 0
ZSWIM7 (UniProt Q19AV6) | inactive: 0
ZNF598 (UniProt Q86UK7) | inactive: 0
ZNF451 (UniProt Q9Y4E5) | inactive: 0
ZNF672 (UniProt Q499Z4) | inactive: 0
ZNF516 (UniProt Q92618) | inactive: 0
ZNF622 (UniProt Q969S3) | inactive: 0
ZNHIT3 (UniProt Q15649) | inactive: 0
ZNF638 (UniProt Q14966) | inactive: 0
ZNF853 (UniProt P0CG23) | inactive: 0
ZZZ3 (UniProt Q8IYH5) | inactive: 0
ZNF460 (UniProt Q14592) | inactive: 0
ch-TOG | inactive: 0
ZNF768 (UniProt Q9H5H4) | inactive: 0
ZNF295 (UniProt Q9ULJ3) | inactive: 0
ZNHIT6 (UniProt Q9NWK9) | inactive: 0
ZNF318 (UniProt Q5VUA4) | inactive: 0
ZNF706 (UniProt Q9Y5V0) | inactive: 0

Retrieved one by one from the entries so far, three records:
Target | dose-dependent thermal stabilisation call
ZNF295 (UniProt Q9ULJ3) | inactive: 0
ZZZ3 (UniProt Q8IYH5) | inactive: 0
ZNF460 (UniProt Q14592) | inactive: 0

Next entries.

Target | dose-dependent thermal stabilisation call
ZNF326 (UniProt Q5BKZ1) | inactive: 0
ZNF579 (UniProt Q8NAF0) | inactive: 0
ZZEF1 (UniProt O43149) | inactive: 0
ZNF330 (UniProt Q9Y3S2) | inactive: 0
ZNF281 (UniProt Q9Y2X9) | inactive: 0
ZNF667 (UniProt Q5HYK9) | inactive: 0
ZYG11B (UniProt Q9C0D3) | inactive: 0
mTOR (UniProt P42345) | inactive: 0
ZNF646 (UniProt O15015) | inactive: 0
ZNF346 (UniProt Q9UL40) | inactive: 0
ZW10 (UniProt O43264) | inactive: 0
ZNF618 (UniProt Q5T7W0) | inactive: 0
ZNF644 (UniProt Q9H582) | inactive: 0
ZNF592 (UniProt Q92610) | inactive: 0
ZNF511 (UniProt Q8NB15) | inactive: 0
ZNF512 (UniProt Q96ME7) | inactive: 0
ZYX (UniProt Q15942) | inactive: 0
ZNF428 (UniProt Q96B54) | inactive: 0
